Source: paper PMC9933776
These are yes or no findings as the source states them, for the method shown. In cells and extracts the contact can be indirect. Some entries that bind do so weakly or less than the wild type.

Chains of the proteins cited; added tags and fusions are not shown. Residues count along the entry.
UniProt Q9QUK6, residues 26-835: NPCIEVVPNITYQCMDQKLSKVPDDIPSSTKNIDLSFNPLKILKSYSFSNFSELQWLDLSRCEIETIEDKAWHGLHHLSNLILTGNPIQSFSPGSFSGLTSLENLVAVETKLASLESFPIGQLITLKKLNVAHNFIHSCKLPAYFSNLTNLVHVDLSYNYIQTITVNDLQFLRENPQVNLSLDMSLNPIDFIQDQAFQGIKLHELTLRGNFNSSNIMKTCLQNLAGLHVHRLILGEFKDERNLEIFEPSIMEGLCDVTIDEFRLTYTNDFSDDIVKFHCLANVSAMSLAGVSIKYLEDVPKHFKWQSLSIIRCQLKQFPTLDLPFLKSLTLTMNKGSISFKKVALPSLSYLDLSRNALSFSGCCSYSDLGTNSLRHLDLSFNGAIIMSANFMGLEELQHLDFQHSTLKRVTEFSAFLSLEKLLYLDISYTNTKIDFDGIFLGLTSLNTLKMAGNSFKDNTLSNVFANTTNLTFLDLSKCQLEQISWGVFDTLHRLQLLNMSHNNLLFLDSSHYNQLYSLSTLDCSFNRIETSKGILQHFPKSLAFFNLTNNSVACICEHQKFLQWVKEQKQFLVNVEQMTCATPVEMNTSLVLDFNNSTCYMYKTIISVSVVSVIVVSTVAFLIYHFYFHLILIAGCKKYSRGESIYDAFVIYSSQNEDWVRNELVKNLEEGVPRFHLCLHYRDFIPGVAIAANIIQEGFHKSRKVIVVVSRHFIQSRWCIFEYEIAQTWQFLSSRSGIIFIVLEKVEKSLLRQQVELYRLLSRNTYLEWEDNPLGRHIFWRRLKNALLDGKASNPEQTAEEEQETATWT

Target: T1, Caveolin-1 (mouse (endogenous in alveolar macrophages of C57BL/6 mice)) (UniProt P49817)
T1 sequence: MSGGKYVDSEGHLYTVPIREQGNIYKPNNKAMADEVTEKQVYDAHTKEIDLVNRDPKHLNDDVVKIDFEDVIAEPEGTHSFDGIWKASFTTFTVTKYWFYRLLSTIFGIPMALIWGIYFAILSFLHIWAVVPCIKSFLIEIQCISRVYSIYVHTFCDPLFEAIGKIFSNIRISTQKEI
Assay: co-IP; lysate (100 µg protein, IP-lysis buffer) of WT mouse alveolar macrophages treated with elution buffer or OMV for 3 h; 5 µg Cav-1 antibody, 4°C overnight, Pierce Crosslink Magnetic IP/Co-IP Kit; immunoblot with anti-TLR4 antibody

Toll-like receptor 4 (from UniProt Q9QUK6 26-835)
binding: binds
